No constants are given. Whether binding was seen depends on the method and setting. For some of these results: In cells and extracts the contact can be indirect. Some binding calls cover weakened binding; strength is not graded here. For some of these results: Sequences can lack the tags named with a protein.
What was measured:
[1] = target: T1, HA-JMJD5:RCCD1-3XFLAG complex (human) (UniProt Q8N371+A6NED2); assay: co-IP
[2] = target: T1, HA-JMJD5:RCCD1-3XFLAG complex (human); assay: pull-down
[3] = target: HA-JMJD5 E77A (pEF6) (human) (UniProt Q8N371); assay: co-IP
[4] = target: HA-JMJD5 D73A (pEF6) (human) (UniProt Q8N371); assay: co-IP
[5] = target: HA-JMJD5 D73A/E77A (pEF6) (human) (UniProt Q8N371); assay: co-IP
[6] = target: HA-JMJD5 (wildtype, pEF6) (human, UniProt Q8N371 1-416); assay: co-IP

Protein sequences, listed by entry. Tags and fused reporters are not part of them. Lines headed by an entry give the natural chain unless they say otherwise; changes in a name come on top.
UniProt Q8N371, whole entry: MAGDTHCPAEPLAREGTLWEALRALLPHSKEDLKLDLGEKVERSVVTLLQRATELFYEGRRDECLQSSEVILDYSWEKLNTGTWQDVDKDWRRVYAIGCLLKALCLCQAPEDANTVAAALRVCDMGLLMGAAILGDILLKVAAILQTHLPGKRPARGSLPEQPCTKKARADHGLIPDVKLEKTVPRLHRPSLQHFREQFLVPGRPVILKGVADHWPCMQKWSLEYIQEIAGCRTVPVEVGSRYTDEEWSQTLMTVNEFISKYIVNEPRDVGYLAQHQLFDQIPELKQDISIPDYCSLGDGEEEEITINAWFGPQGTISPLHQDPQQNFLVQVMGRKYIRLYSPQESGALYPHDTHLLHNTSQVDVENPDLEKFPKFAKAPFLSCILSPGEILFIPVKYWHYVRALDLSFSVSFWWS

B1: CX3 complex (RAD51C:XRCC3), endogenous (complex, UniProt O43502;O43542)
chain 1: MRGKTFRFEMQRDLVSFPLSPAVRVKLVSAGFQTAEELLEVKPSELSKEVGISKAEALETLQIIRRECLTNKPRYAGTSESHKKCTALELLEQEHTQGFIITFCSALDDILGGGVPLMKTTEICGAPGVGKTQLCMQLAVDVQIPECFGGVAGEAVFIDTEGSFMVDRVVDLATACIQHLQLIAEKHKGEEHRKALEDFTLDNILSHIYYFRCRDYTELLAQVYLLPDFLSEHSKVRLVIVDGIAFPFRHDLDDLSLRTRLLNGLAQQMISLANNHRLAVILTNQMTTKIDRNQALLVPALGESWGHAATIRLIFHWDRKQRLATLYKSPSQKECTVLFQIKPQGFRDTVVTSACSLQTEGSLSTRKRSRDPEEEL
chain 2: MDLDLLDLNPRIIAAIKKAKLKSVKEVLHFSGPDLKRLTNLSSPEVWHLLRTASLHLRGSSILTALQLHQQKERFPTQHQRLSLGCPVLDALLRGGLPLDGITELAGRSSAGKTQLALQLCLAVQFPRQHGGLEAGAVYICTEDAFPHKRLQQLMAQQPRLRTDVPGELLQKLRFGSQIFIEHVADVDTLLECVNKKVPVLLSRGMARLVVIDSVAAPFRCEFDSQASAPRARHLQSLGATLRELSSAFQSPVLCINQVTEAMEEQGAAHGPLGFWDERVSPALGITWANQLLVRLLADRLREEEAALGCPARTLRVLSAPHLPPSSCSYTISAEGVRGTPGTQSH
B1 was tested. Which binding [1] did it give?
Its binding is “binds”.

B2: recombinant CX3 complex (complex, UniProt O43502;O43542)
chain 1: MRGKTFRFEMQRDLVSFPLSPAVRVKLVSAGFQTAEELLEVKPSELSKEVGISKAEALETLQIIRRECLTNKPRYAGTSESHKKCTALELLEQEHTQGFIITFCSALDDILGGGVPLMKTTEICGAPGVGKTQLCMQLAVDVQIPECFGGVAGEAVFIDTEGSFMVDRVVDLATACIQHLQLIAEKHKGEEHRKALEDFTLDNILSHIYYFRCRDYTELLAQVYLLPDFLSEHSKVRLVIVDGIAFPFRHDLDDLSLRTRLLNGLAQQMISLANNHRLAVILTNQMTTKIDRNQALLVPALGESWGHAATIRLIFHWDRKQRLATLYKSPSQKECTVLFQIKPQGFRDTVVTSACSLQTEGSLSTRKRSRDPEEEL
chain 2: MDLDLLDLNPRIIAAIKKAKLKSVKEVLHFSGPDLKRLTNLSSPEVWHLLRTASLHLRGSSILTALQLHQQKERFPTQHQRLSLGCPVLDALLRGGLPLDGITELAGRSSAGKTQLALQLCLAVQFPRQHGGLEAGAVYICTEDAFPHKRLQQLMAQQPRLRTDVPGELLQKLRFGSQIFIEHVADVDTLLECVNKKVPVLLSRGMARLVVIDSVAAPFRCEFDSQASAPRARHLQSLGATLRELSSAFQSPVLCINQVTEAMEEQGAAHGPLGFWDERVSPALGITWANQLLVRLLADRLREEEAALGCPARTLRVLSAPHLPPSSCSYTISAEGVRGTPGTQSH
B2 was tested. Which binding [2] did it give?
The binding was “binds”.

B3: RCCD1-FLAG (wildtype, pIHZ) (natural protein)
chain: MAEERPGAWFGFGFCGFGQELGSGRGRQVHSPSPLRAGVDICRVSASWSYTAFVTRGGRLELSGSASGAAGRCKDAWASEGLLAVLRAGPGPEALLQVWAAESALRGEPLWAQNVVPEAEGEDDPAGEAQAGRLPLLPCARAYVSPRAPFYRPLAPELRARQLELGAEHALLLDAAGQVFSWGGGRHGQLGHGTLEAELEPRLLEALQGLVMAEVAAGGWHSVCVSETGDIYIWGWNESGQLALPTRNLAEDGETVAREATELNEDGSQVKRTGGAEDGAPAPFIAVQPFPALLDLPMGSDAVKASCGSRHTAVVTRTGELYTWGWGKYGQLGHEDTTSLDRPRRVEYFVDKQLQVKAVTCGPWNTYVYAVEKGKS
With B3 as the binder, how does the binding [3] read?
Its binding is “binds”.

And the binding [4]?
The binding was “binds”.

And the binding [5]?
The binding was “no binding”.

And the binding [6]?
Its binding is “binds”.

B4: RAD51B (protein, UniProt O15315 1-384)
chain: MGSKKLKRVGLSQELCDRLSRHQILTCQDFLCLSPLELMKVTGLSYRGVHELLCMVSRACAPKMQTAYGIKAQRSADFSPAFLSTTLSALDEALHGGVACGSLTEITGPPGCGKTQFCIMMSILATLPTNMGGLEGAVVYIDTESAFSAERLVEIAESRFPRYFNTEEKLLLTSSKVHLYRELTCDEVLQRIESLEEEIISKGIKLVILDSVASVVRKEFDAQLQGNLKERNKFLAREASSLKYLAEEFSIPVILTNQITTHLSGALASQADLVSPADDLSLSEGTSGSSCVIAALGNTWSHSVNTRLILQYLDSERRQILIAKSPLAPFTSFVYTIKEEGLVLQETTFCSVTQAELNWAPEILPPQPPEQLGLQMCHHTQLIF
How did the binding [1] turn out when B4 was run?
Its binding is “no binding”.
